Reference: ChEMBL document CHEMBL4316593 (Eur J Med Chem, 2019)
This continues a long series; more values of the same kind are listed elsewhere.

What was measured:
Assay type in all cases: cell-based
Settings in all cases: U-87MG ATCC
[1] = Inhibition of RTK/PI3K/AKT/mTOR signaling in human U87 cells assessed as down regulation of CENPQ gene expression at cytotoxic IC50 measured after 48 hrs relative to control
[2] = Inhibition of RTK/PI3K/AKT/mTOR signaling in human U87 cells assessed as down regulation of C12orf49 gene expression at cytotoxic IC50 measured after 48 hrs relative to control
[3] = Inhibition of RTK/PI3K/AKT/mTOR signaling in human U87 cells assessed as down regulation of GADD45A gene expression at cytotoxic IC50 measured after 48 hrs relative to control
[4] = Inhibition of RTK/PI3K/AKT/mTOR signaling in human U87 cells assessed as up regulation of solute carrier family 39 member 14 gene expression at cytotoxic IC50 measured after 48 hrs relative to control
[5] = Inhibition of RTK/PI3K/AKT/mTOR signaling in human U87 cells assessed as down regulation of UBE2D1 gene expression at cytotoxic IC50 measured after 48 hrs relative to control
[6] = Inhibition of RTK/PI3K/AKT/mTOR signaling in human U87 cells assessed as up regulation of CTD nuclear envelope phosphatase 1 gene expression at cytotoxic IC50 measured after 48 hrs relative to control
[7] = Inhibition of RTK/PI3K/AKT/mTOR signaling in human U87 cells assessed as up regulation of neuralized E3 ubiquitin protein ligase 1B gene expression at cytotoxic IC50 measured after 48 hrs relative to control
[8] = Inhibition of RTK/PI3K/AKT/mTOR signaling in human U87 cells assessed as down regulation of MEGF9 gene expression at cytotoxic IC50 measured after 48 hrs relative to control
[9] = Inhibition of RTK/PI3K/AKT/mTOR signaling in human U87 cells assessed as up regulation of CLCN3 gene expression at cytotoxic IC50 measured after 48 hrs relative to control
[10] = Inhibition of RTK/PI3K/AKT/mTOR signaling in human U87 cells assessed as down regulation of MED8 gene expression at cytotoxic IC50 measured after 48 hrs relative to control
[11] = Inhibition of RTK/PI3K/AKT/mTOR signaling in human U87 cells assessed as up regulation of collagen type IX alpha 3 chain gene expression at cytotoxic IC50 measured after 48 hrs relative to control
[12] = Inhibition of RTK/PI3K/AKT/mTOR signaling in human U87 cells assessed as up regulation of MARCKSL1 gene expression at cytotoxic IC50 measured after 48 hrs relative to control
[13] = Inhibition of RTK/PI3K/AKT/mTOR signaling in human U87 cells assessed as up regulation of PACSIN2 gene expression at cytotoxic IC50 measured after 48 hrs relative to control
[14] = Inhibition of RTK/PI3K/AKT/mTOR signaling in human U87 cells assessed as up regulation of pyruvate kinase, muscle gene expression at cytotoxic IC50 measured after 48 hrs relative to control
[15] = Inhibition of RTK/PI3K/AKT/mTOR signaling in human U87 cells assessed as down regulation of ZSCAN9 gene expression at cytotoxic IC50 measured after 48 hrs relative to control
[16] = Inhibition of RTK/PI3K/AKT/mTOR signaling in human U87 cells assessed as down regulation of ABCA3 gene expression at cytotoxic IC50 measured after 48 hrs relative to control
[17] = Inhibition of RTK/PI3K/AKT/mTOR signaling in human U87 cells assessed as down regulation of SEC23B gene expression at cytotoxic IC50 measured after 48 hrs relative to control
[18] = Inhibition of RTK/PI3K/AKT/mTOR signaling in human U87 cells assessed as down regulation of LSM11 gene expression at cytotoxic IC50 measured after 48 hrs relative to control
[19] = Inhibition of RTK/PI3K/AKT/mTOR signaling in human U87 cells assessed as down regulation of NDUFA4 gene expression at cytotoxic IC50 measured after 48 hrs relative to control
[20] = Inhibition of RTK/PI3K/AKT/mTOR signaling in human U87 cells assessed as down regulation of CKS2 gene expression at cytotoxic IC50 measured after 48 hrs relative to control
[21] = Inhibition of RTK/PI3K/AKT/mTOR signaling in human U87 cells assessed as up regulation of ATP1A1 gene expression at cytotoxic IC50 measured after 48 hrs relative to control
[22] = Inhibition of RTK/PI3K/AKT/mTOR signaling in human U87 cells assessed as down regulation of SCML1 gene expression at cytotoxic IC50 measured after 48 hrs relative to control
[23] = Inhibition of RTK/PI3K/AKT/mTOR signaling in human U87 cells assessed as down regulation of SNHG3 gene expression at cytotoxic IC50 measured after 48 hrs relative to control
[24] = Inhibition of RTK/PI3K/AKT/mTOR signaling in human U87 cells assessed as down regulation of NUP98 gene expression at cytotoxic IC50 measured after 48 hrs relative to control
[25] = Inhibition of RTK/PI3K/AKT/mTOR signaling in human U87 cells assessed as down regulation of GALNT1 gene expression at cytotoxic IC50 measured after 48 hrs relative to control
[26] = Inhibition of RTK/PI3K/AKT/mTOR signaling in human U87 cells assessed as down regulation of HECW1 gene expression at cytotoxic IC50 measured after 48 hrs relative to control
[27] = Inhibition of RTK/PI3K/AKT/mTOR signaling in human U87 cells assessed as down regulation of GALNT10 gene expression at cytotoxic IC50 measured after 48 hrs relative to control
[28] = Inhibition of RTK/PI3K/AKT/mTOR signaling in human U87 cells assessed as down regulation of RANGAP1 gene expression at cytotoxic IC50 measured after 48 hrs relative to control
[29] = Inhibition of RTK/PI3K/AKT/mTOR signaling in human U87 cells assessed as up regulation of DET1 and DDB1 associated 1 gene expression at cytotoxic IC50 measured after 48 hrs relative to control
[30] = Inhibition of RTK/PI3K/AKT/mTOR signaling in human U87 cells assessed as up regulation of TATA-box binding protein associated factor 4b gene expression at cytotoxic IC50 measured after 48 hrs relative to control
[31] = Inhibition of RTK/PI3K/AKT/mTOR signaling in human U87 cells assessed as down regulation of OGDH gene expression at cytotoxic IC50 measured after 48 hrs relative to control
[32] = Inhibition of RTK/PI3K/AKT/mTOR signaling in human U87 cells assessed as down regulation of ZNF708 gene expression at cytotoxic IC50 measured after 48 hrs relative to control

CC(=O)C(=NNc1ccccc1C#N)C(C)=O
log2FC [1]: -1.25 | log2FC [2]: -0.942 | log2FC [3]: -1.02 | log2FC [4]: 0.749 | log2FC [5]: -1.35 | log2FC [6]: 0.76 | log2FC [7]: 0.956 | log2FC [8]: -1.23 | log2FC [9]: 0.525 | log2FC [10]: -0.647 | log2FC [11]: 1.51 | log2FC [12]: 0.553 | log2FC [13]: 0.418 | log2FC [14]: 0.908 | log2FC [15]: -1.22 | log2FC [16]: -0.825 | log2FC [17]: -0.776 | log2FC [18]: -1.1 | log2FC [19]: -0.655 | log2FC [20]: -0.782 | log2FC [21]: 0.427 | log2FC [22]: -2.49 | log2FC [23]: -1.49 | log2FC [24]: -0.424 | log2FC [25]: -1.02 | log2FC [26]: -1.49 | log2FC [27]: -0.715 | log2FC [28]: -0.954 | log2FC [29]: 0.779 | log2FC [30]: 0.949 | log2FC [31]: -0.668 | log2FC [32]: -2.13
